Results deposited as PubChem BioAssay AID1053208 (Peter MacCallum Cancer Centre, 2014)
Assay: 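Genes whose silencing cuts survival of bone tumour cells only with doxorubicin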 (primary screen). Cell system: mouse osteosarcoma cells, early-passage culture from an engineered mouse model of fibroblastic bone tumour. Knock-down reagent: siRNA pool against mouse genes, 40 nM. Time to read-out: about 120 h (48 h before drug, then 72 h with drug). Conditions: doxorubicin 100 nM for 72 h, roughly 30-40% inhibitory dose. Measurement: 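Viability read as ATP luminescence after 72 h of 100 nM doxorubicin or none, duplicate wells averaged, scaled to non-targeting siRNA, then expressed as robust z-scores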. Scale: viability z-score with doxorubicin: higher = more viable cells under doxorubicin; viability z-score without drug: higher = more viable cells with knock-down alone. Active means: 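Called active if knock-down leaves viability unchanged without drug (z within -2 to 2) but lowers it with doxorubicin (z at or under -2)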.
This is a random part of about 17,000 reagents tested. In the full data, 788 (4.7%) were called active. 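Calls rest on z-score classes alone; an extra cut-off of viability at most 70% of control was not applied to them.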 Further read-outs or replicates are left out here.

target gene	combined z-score class	viability z-score with doxorubicin	viability z-score without drug	outcome
Dync2li1 (GeneID 213575)	no change with or without drug	-0.11	1.85	inactive
Sema3f (GeneID 20350)	no change with or without drug	-1.91	-0.17	inactive
Csn1s2a (GeneID 12993)	no change with or without drug	0.34	0.51	inactive
Ankrd17 (GeneID 81702)	no change with or without drug	-0.34	0.17	inactive
Rac1 (GeneID 19353)	low cell count with and without drug	-2.81	-4.22	inactive
Zdhhc13 (GeneID 243983)	no change with or without drug	0.67	-0.17	inactive
Nrp1 (GeneID 18186)	no change with or without drug	0	-0.51	inactive
Arhgap26 (GeneID 71302)	low cell count with doxorubicin only	-2.47	-1.52	active
AI606181 (GeneID 226118)	no change with or without drug	0.67	1.18	inactive
Ehf (GeneID 13661)	no change with or without drug	0.67	1.18	inactive
4933434M16Rik (GeneID 71203)	no change with or without drug	-0.34	0.67	inactive
Kynu (GeneID 70789)	no change with or without drug	-0.45	1.01	inactive
Cndp1 (GeneID 338403)	no change with or without drug	-0.22	-0.84	inactive
Insc (GeneID 233752)	no change with or without drug	0.22	-0.17	inactive
Fbxw8 (GeneID 231672)	no change with or without drug	0.22	0.84	inactive
P2ry6 (GeneID 233571)	no change with or without drug	-0.9	0.84	inactive
LOC269472 (retired record) (GeneID 269472)	no change with or without drug	1.8	1.69	inactive
Clec4a2 (GeneID 26888)	no change with or without drug	-1.8	-1.69	inactive
Uaca (GeneID 72565)	no change with or without drug	0	1.01	inactive
Dars1 (GeneID 226414)	no change with or without drug	-1.12	-1.85	inactive
Usp2 (GeneID 53376)	no change with or without drug	0	1.69	inactive
Mkrn1 (GeneID 54484)	no change with or without drug	-0.22	0.17	inactive
Smg8 (GeneID 74133)	no change with or without drug	-1.01	0.17	inactive
Hoxaas2 (GeneID 105242657)	no change with or without drug	0.67	0.84	inactive
Gatd1 (GeneID 213350)	no change with or without drug	-1.01	-1.52	inactive
Cnot3 (GeneID 232791)	no change with or without drug	-1.01	-1.85	inactive
Or5p76 (GeneID 258734)	no change with or without drug	-0.56	0	inactive
Psmc3 (GeneID 19182)	low cell count with and without drug	-6.41	-7.25	inactive
Mzt1 (GeneID 76789)	no change with or without drug	-0.22	0.67	inactive
Xylb (GeneID 102448)	no change with or without drug	-1.12	-0.51	inactive
Sema6b (GeneID 20359)	no change with or without drug	0.9	0.51	inactive
Arhgap25 (GeneID 232201)	no change with or without drug	1.35	-0.17	inactive
Mmgt1 (GeneID 236792)	no change with or without drug	-0.56	-0.51	inactive
Prcp (GeneID 72461)	no change with or without drug	0.9	0.67	inactive
Hebp1 (GeneID 15199)	no change with or without drug	-1.01	-0.17	inactive
Or6c202 (GeneID 258540)	no change with or without drug	0.56	1.35	inactive
Cebpd (GeneID 12609)	low cell count with doxorubicin only	-3.37	-1.35	active
Mast1 (GeneID 56527)	no change with or without drug	0.34	0.51	inactive
Crhr1 (GeneID 12921)	no change with or without drug	1.12	0.84	inactive
Rnf167 (GeneID 70510)	low cell count without drug only	-1.12	-4.22	inactive
Or4e2 (GeneID 57271)	no change with or without drug	-1.12	-1.85	inactive
Abhd6 (GeneID 66082)	no change with or without drug	0.67	-0.17	inactive
Nradd (GeneID 67169)	no change with or without drug	1.57	0.17	inactive
Pax9 (GeneID 18511)	no change with or without drug	0.9	0.17	inactive
Commd10 (GeneID 69456)	no change with or without drug	0.45	0.17	inactive
Dennd1a (GeneID 227801)	no change with or without drug	-0.22	0.34	inactive
Dbil5 (GeneID 13168)	no change with or without drug	1.46	1.69	inactive
Fuca1 (GeneID 71665)	no change with or without drug	-1.01	-0.84	inactive
Rnasek (GeneID 52898)	no change with or without drug	0.45	1.85	inactive
Spock3 (GeneID 72902)	no change with or without drug	0.22	0.17	inactive

5 entries from above in another layout:
| target gene | combined z-score class | viability z-score with doxorubicin | viability z-score without drug | outcome |
| --- | --- | --- | --- | --- |
| Rac1 (GeneID 19353) | low cell count with and without drug | -2.81 | -4.22 | inactive |
| Zdhhc13 (GeneID 243983) | no change with or without drug | 0.67 | -0.17 | inactive |
| Nrp1 (GeneID 18186) | no change with or without drug | 0 | -0.51 | inactive |
| Arhgap26 (GeneID 71302) | low cell count with doxorubicin only | -2.47 | -1.52 | active |
| AI606181 (GeneID 226118) | no change with or without drug | 0.67 | 1.18 | inactive |
